Test [1] has as its target T1, IL-13Rα2, biotinylated (human) (UniProt Q14627).
T1 sequence (biotinylated (site not stated), looked up): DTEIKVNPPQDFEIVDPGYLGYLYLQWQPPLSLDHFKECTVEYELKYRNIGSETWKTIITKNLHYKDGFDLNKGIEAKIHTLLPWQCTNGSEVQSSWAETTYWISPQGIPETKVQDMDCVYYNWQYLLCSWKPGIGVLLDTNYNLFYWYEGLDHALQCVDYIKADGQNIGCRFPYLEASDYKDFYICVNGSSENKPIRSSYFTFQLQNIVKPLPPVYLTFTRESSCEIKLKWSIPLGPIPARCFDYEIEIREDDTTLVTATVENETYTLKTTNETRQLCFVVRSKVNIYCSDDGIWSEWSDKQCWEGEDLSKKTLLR
Description: SPR (FIG. 5b).

For test [2], the target named is T1, IL-13Rα2, biotinylated (human). The experiment in a line: SPR, biotinylated receptor captured on SA chip (FIG. 2A). Background: In SPR one partner is held on a chip, and binding of the other changes the refractive index at the surface.

This passage reports binding results from patent US20150056162A1.

These are yes or no findings as the source states them, for the method shown. Some results given as binding are weak or reduced against the parent protein; the word gives no strength.

B1: IL-13 variant DN (ligand)
chain: PGPVPPSTAVRALIEELINITQNQKAPLCNGSMVWSINRTAGMYCAALESLINVSGCSAIEKTQDMLSGFCPHKVSAGQFSSLHVRSSKIEVAQFVKDLLFHLRTLFREGQFNHHHHHH
B1: in test [1], the binding entry is “binds”.

B2: IL-13 variant D7 (ligand)
chain: PGPVPPSTAARELIEELFNITQNQKAPLCNGSMVWSINLTAGMYCAALESLINVSGCSAIEKTKRMLSGFCPHKVSAGQFPSLHVKKTRIEVAQFVKDLLIHLRKLFKEGQFNHHHHHH
In the case of B2, the binding entry in test [2] is “binds”.
